The source of these data is publication PMC3527473, “The C-Terminus of ClpC1 of Mycobacterium tuberculosis Is Crucial for Its Oligomerization and Function” (PLoS ONE, 2012).

Amino acid sequences for entries named in this document (tags omitted).
UniProt P9WPC9: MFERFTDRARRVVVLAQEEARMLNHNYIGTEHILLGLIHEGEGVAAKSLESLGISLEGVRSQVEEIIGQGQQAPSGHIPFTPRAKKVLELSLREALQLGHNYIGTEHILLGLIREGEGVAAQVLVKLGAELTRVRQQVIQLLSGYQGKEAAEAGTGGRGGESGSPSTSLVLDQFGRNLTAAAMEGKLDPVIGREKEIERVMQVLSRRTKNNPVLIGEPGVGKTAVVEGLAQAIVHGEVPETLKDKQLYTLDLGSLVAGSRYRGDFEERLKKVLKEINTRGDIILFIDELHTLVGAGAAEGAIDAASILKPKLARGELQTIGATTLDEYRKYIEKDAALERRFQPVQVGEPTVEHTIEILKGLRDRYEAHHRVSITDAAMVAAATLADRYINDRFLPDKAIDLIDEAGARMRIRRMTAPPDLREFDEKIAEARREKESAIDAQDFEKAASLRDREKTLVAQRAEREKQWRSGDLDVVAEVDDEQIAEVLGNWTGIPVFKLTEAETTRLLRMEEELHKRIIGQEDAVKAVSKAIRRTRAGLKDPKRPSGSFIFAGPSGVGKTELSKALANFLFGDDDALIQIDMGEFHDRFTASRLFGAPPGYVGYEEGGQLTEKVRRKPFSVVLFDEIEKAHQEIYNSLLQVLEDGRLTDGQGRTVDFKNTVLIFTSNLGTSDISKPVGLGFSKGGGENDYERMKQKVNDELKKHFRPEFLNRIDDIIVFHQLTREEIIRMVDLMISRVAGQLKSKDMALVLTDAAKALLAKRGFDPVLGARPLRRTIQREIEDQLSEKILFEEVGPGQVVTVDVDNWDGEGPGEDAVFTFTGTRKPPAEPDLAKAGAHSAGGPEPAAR

No constants are given. Whether binding was seen depends on the method and setting.

In this assay the target is Mycobacterium tuberculosis ClpC1, wild type (Mycobacterium tuberculosis H37Rv) (UniProt P9WPC9). As to the kind of experiment: SEC; Superdex-200 (1×30 cm) in buffer A (50 mM Tris-HCl pH 7.6, 100 mM KCl, 5 mM DTT, 10% glycerol, 0.01% Triton X-100), in the absence of ATP and MgCl2; fractions checked by SDS-PAGE; both purified.

Regarding “Mycobacterium tuberculosis ClpC1, wild type (from UniProt P9WPC9 1-848)”, the binding result is “no binding (condition: in the absence of ATP)”.
